PubChem BioAssay AID304 (DTP/NCI, 2004)
The list is a part of this screen's results and no random one: it is rich in T/C values a quarter to a half above the control, in often repeated tests (any T/C) and in doses without a T/C. Other doses and runs of a compound stand elsewhere. T/C is the treated group as % of the vehicle group. Some doses have a count of surviving animals in place of a T/C: the source holds a T/C of zero for them, seemingly a mark for toxic or unscored doses. Some survivor counts are full or nearly so, which does not show that the dose was tolerated: survival well below the control is almost never listed, so the zero probably covers shortened survival too. Counts of survivors are from the toxicity check (mostly the fifth day) where no day follows; animals may have died later. Schedules are NCI's codes, taken here to give the interval after Q, in days (D) or hours (H), and the number of doses after X. Some doses were run more than once; their values stand side by side, smallest first. For survival time, this PubChem deposit counts one and a half times the control or more as active, and values a quarter to a half above the control carry no call in these data; other NCI protocols may use other cut-offs. Brackets with × stand for listed records that agree. Some T/C values are followed by the survivors on the day toxicity was checked, most often the fifth; where none is given, no animal had died by that day.

System: Lymphosarcoma Mecca ip in C3AKF1 mice, survival T/C%
Assay: NCI In Vivo Anticancer Drug Screen. Data for tumor model Lymphosarcoma Mecca (intraperitoneal) in C3AKF1 (CHKRF1) mice
Conditions: T/C endpoint: survival time, mean or median, schedule: Q01DX010 (ip), vehicle: saline, higher T/C = longer survival
Description: The antitumor activity of compounds was measured in mice bearing transplantable tumors. Survival or tumor size were measured and the results are expressed as the measurement made in the treated group (T) divided by the measurement made in the vehicle treated control group (C). The tumor model used in this assay is Lymphosarcoma Mecca (intraperitoneal) in C3AKF1 (CHKRF1) mice

## C[C@H](N)C(=O)N[C@@H]1[C@H]2C(=C(O)C[C@@H](O)[C@@H]2O)C(=O)O[C@@H]1C
dose: 150.0 mg/kg/injection
  T/C: 144 % of control
dose: 300.0 mg/kg/injection
  T/C: 135 % of control
dose: 1200.0 mg/kg/injection
  T/C: 140 % of control

## CC(=O)NC1=C(N2CC2)C(=O)C(NC(C)=O)=C(N2CC2)C1=O
dose: 0.13 mg/kg/injection
  T/C: 127 % of control

## Nc1ncnc2[nH]ncc12
dose: 1.5 mg/kg/injection
  survivor count: 6 of 6
dose: 6.0 mg/kg/injection
  survivor count: 6 of 6
dose: 12.0 mg/kg/injection
  survivor count: 6 of 6

## S=P(N1CC1)(N1CC1)N1CC1
dose: 1.0 mg/kg/injection
  survivor count: 6 of 6
dose: 2.0 mg/kg/injection
  survivor count: 6 of 6
dose: 4.0 mg/kg/injection
  T/C: 136 % of control
dose: 8.0 mg/kg/injection
  survivor count: 6 of 6

## COc1cc(-c2ccc(Nc3ccccc3C(=O)O)c(OC)c2)ccc1Nc1ccccc1C(=O)O
dose: 50.0 mg/kg/injection
  T/C: 133 and 140 % of control
dose: 100.0 mg/kg/injection
  T/C: 138 and 140 % of control

## CS(=O)(=O)OCCCCOS(C)(=O)=O
dose: 12.5 mg/kg/injection
  survivor count: 6 of 6
dose: 25.0 mg/kg/injection
  survivor count: 6 of 6

## C[C@@H]1C[C@@H]([C@H](O)CC2CC(=O)NC(=O)C2)C(=O)[C@@H](C)C1
dose: 20.0 mg/kg/injection
  survivor count: 6 of 6
dose: 40.0 mg/kg/injection
  survivor count: 5 of 6 and 6 of 6

## CS(=O)(=O)OCCCl
dose: 150.0 mg/kg/injection
  survivor count: 0 of 6

## CCN(CC)CCNc1ccc(C)c2sc3ccccc3c(=O)c12
dose: 50.0 mg/kg/injection
  T/C: 127 % of control
dose: 100.0 mg/kg/injection
  survivor count: 6 of 6
dose: 200.0 mg/kg/injection
  survivor count: 5 of 6 and 6 of 6

## Nc1nc(=S)c2[nH]cnc2[nH]1
dose: 1.25 mg/kg/injection
  T/C: 113, 116, 163, 183 % of control
dose: 2.5 mg/kg/injection
  T/C: 86, 118, 127 % of control
  survivor count: 6 of 6
dose: 5.0 mg/kg/injection
  T/C: 109 and 118 % of control
  survivor count: 6 of 6
dose: 10.0 mg/kg/injection
  T/C: 86 (2×) and 100 % of control
  survivor count: 6 of 6

## CC[n+]1c(-c2ccccc2)c2cc(N)ccc2c2ccc(N)cc21
dose: 5.0 mg/kg/injection
  T/C: 125 % of control

## Clc1ncnc2nc[nH]c12
dose: 7.5 mg/kg/injection
  T/C: 136 % of control
dose: 60.0 mg/kg/injection
  T/C: 127 % of control

## N=[N+]=CC(=O)OCC(N)C(=O)O (stereo not drawn)
dose: 6.25 mg/kg/injection
  T/C: 130 % of control
dose: 12.51 mg/kg/injection
  T/C: 130 % of control
dose: 25.0 mg/kg/injection
  survivor count: 6 of 6

## O=C(Nc1ccc(C2=NCCN2)cc1)c1ccc(C(=O)Nc2ccc(C3=NCCN3)cc2)c([N+](=O)[O-])c1
dose: 6.0 mg/kg/injection
  T/C: 127 % of control
dose: 8.0 mg/kg/injection
  T/C: 127 % of control
dose: 12.0 mg/kg/injection
  T/C: 144 % of control [8 of 10 alive]
dose: 18.0 mg/kg/injection
  survivor count: 5 of 10 and 8 of 10

## O=c1[nH]c(=O)n(C2CC(O)C(CO)O2)cc1F (stereo not drawn)
dose: 40.0 mg/kg/injection
  T/C: 131 and 145 % of control

## CO[C@@H]1[C@@H](OC2OC(C)C(OC3CC(C)(O)C(OC(=O)CC(C)C)C(C)O3)C(N(C)C)C2O)[C@@H](CC=O)C[C@@H](C)C(=O)/C=C/C2O[C@H]2C[C@@H](C)OC(=O)C[C@H]1OC(C)=O (stereo partly drawn)
dose: 150.0 mg/kg/injection
  survivor count: 6 of 6
dose: 300.0 mg/kg/injection
  survivor count: 5 of 6

## NC(=O)N(CCCl)N=O
dose: 0.5 mg/kg/injection
  survivor count: 0 of 6
dose: 4.0 mg/kg/injection
  survivor count: 6 of 6
